≈ marks a conversion by molar mass, not a printed value.

The subject of the test is P. aeruginosa (ATCC27853). As to the kind of experiment: MIC, broth microdilution. The format is cell-based. The following applies: Pseudomonas aeruginosa, 37°C, 24 or 48 hours, individual data from two independent experiments. On the technique in general: In broth dilution the organism is exposed to a series of concentrations in liquid medium.

Usually MIC stands for the lowest concentration that inhibits growth of the organism. For `NC[C@H]1O[C@H](O[C@H]2[C@H](O)[C@@H](O[C@H]3O[C@H](CO)[C@@H](O)[C@H](N)[C@H]3O)[C@H](N)C[C@@H]2N)[C@H](N)C[C@@H]1O` [Tobramycin], the MIC lay within 0.25 to 1 µg/mL (≈ 0.535 to 2.14 µM).

Source of the values: paper PMC3968008 (PLoS ONE, 2014).
